Here are results for ten compounds from PubChem BioAssay AID330 (DTP/NCI, 2004).

Each structure is given as a SMILES string. The list shows only some results of the screen, not a fair sample: it is rich in T/C values a quarter to a half above the control, in often repeated tests (any T/C) and in doses without a T/C. Other doses and runs of a compound stand elsewhere. T/C: endpoint of the treated group in % of that of the vehicle group. Some entries give survivors of the animals treated and no T/C: the source holds a T/C of zero for them, seemingly a mark for toxic or unscored doses. Some survivor counts are full or nearly so, which does not show that the dose was tolerated: the source hardly ever lists a survival T/C far under the control, and the zero likely stands for such cases as well. Counts of survivors are from the toxicity check (mostly the fifth day) where no day follows; animals may have died later. Schedules are NCI's codes, read here as Q, the interval in days (D) or hours (H), X, the number of doses. Where survival is the endpoint, this PubChem deposit counts one and a half times the control or more as active, and values a quarter to a half above the control carry no call in these data; other NCI protocols may use other cut-offs.

The test system of the assay is P388 leukemia ip, CD2F1 mice, survival T/C. The experiment in a line: NCI In Vivo Anticancer Drug Screen. Data for tumor model P388 Leukemia (intraperitoneal) in CD2F1 (CDF1) mice. The settings on record: T/C endpoint: median survival time, higher T/C = longer survival.
Where [1] appears, read: dose: 50.0 mg/kg/injection, schedule: Q01DX009 (ip), vehicle: saline with Tween-80.
[2] abbreviates: dose: 200.0 mg/kg/injection, schedule: Q01DX009 (ip), vehicle: saline with Tween-80.

`CC(=NC(C)C)N1CCCCC1`: where the note is “dose: 200.0 mg/kg/injection, schedule: Q01DX009 (ip), vehicle: saline”, the survivor count is reported as 0 of 6.
In the case of `CS(=O)(=O)CS(=O)(=O)OCCBr`, the T/C (dose: 25.0 mg/kg/injection, schedule: Q01DX005 (ip), vehicle: saline with Tween-80) is 136 % of control and the T/C (dose: 50.0 mg/kg/injection, schedule: Q01DX005 (ip), vehicle: saline with Tween-80) was 138 % of control. In addition, the survivor count is, setting by setting: (dose: 100.0 mg/kg/injection, schedule: Q01DX005 (ip), vehicle: saline with Tween-80) 4 of 6; (dose: 200.0 mg/kg/injection, schedule: Q01DX005 (ip), vehicle: saline with Tween-80) 1 of 6.
Turning to `COc1cc(NC(=O)CCl)ccc(=O)c1`, under setting [1], the survivor count was 4 of 6.
Consider `CC(=O)OCC1OC(n2cnc3c(N)ncnc32)C2OC(C)(C)OC12` (centres undefined), for which the survivor count (dose: 200.0 mg/kg/injection, schedule: Q01DX005 (ip), vehicle: Klucel (hydroxypropylcellulose) (HPC)) was 3 of 6.
Turning to `CCCCCCCCCCCCCCCCCCCCC(C(=O)OCC)S(=O)(=O)O` (centres undefined), the survivor count (dose: 200.0 mg/kg/injection, schedule: Q01DX009 (ip), vehicle: Klucel (hydroxypropylcellulose) (HPC)) was 3 of 6.
Consider `CCCC(NC)C(CC)CN` (centres undefined), for which the survivor count by setting is: under setting [2], 1 of 6; (dose: 400.0 mg/kg/injection, schedule: Q01DX009 (ip), vehicle: saline with Tween-80) 0 of 6.
Take `N#CC1(C#N)C(c2ccccc2)C1(C#N)C#N`: under “dose: 25.0 mg/kg/injection, schedule: Q04DX003 (ip), vehicle: saline sonified”, the T/C is 130 % of control. The survivor count (dose: 37.5 mg/kg/injection, schedule: Q04DX003 (ip), vehicle: saline with Tween-80) was 4 of 6.
Consider `CO[C@H]1/C=C/O[C@@]2(C)Oc3c(C)c(O)c4c(O)c(c(/C=N/N5C(C)CN(Cc6ccc(C#N)cc6)CC5C)c(O)c4c3C2=O)NC(=O)/C(C)=C\C=C\[C@H](C)[C@H](O)[C@@H](C)[C@@H](O)[C@@H](C)[C@H](OC(C)=O)[C@@H]1C` (some centres undefined), for which the survivor count was 4 of 6 under setting [2] and 0 of 6 (dose: 400.0 mg/kg/injection, schedule: Q01DX009 (ip), vehicle: Klucel (hydroxypropylcellulose) (HPC)).
As for `COc1ccc2c(c1OC(C)=O)-c1cc(OC(C)=O)cc3c1C(C2)N(C(=O)CBr)CC3` (centres undefined), the survivor count is 6 of 6 (dose: 25.0 mg/kg/injection, schedule: Q01DX009 (ip), vehicle: saline with Tween-80) and 2 of 6 under setting [1].
For `Clc1ccnc2ccc3ncccc3c12`, the survivor count (dose: 25.0 mg/kg/injection, schedule: Q04DX002 (ip), vehicle: saline with Tween-80) is 2 of 6; the survivor count (dose: 50.0 mg/kg/injection, schedule: Q04DX002 (ip), vehicle: saline with Tween-80) was 0 of 6; the survivor count (dose: 100.0 mg/kg/injection, schedule: Q04DX002 (ip), vehicle: saline with Tween-80) is 0 of 6.
